± gives the standard deviation of the averaged measurements. The effect of the compound repeats well; differences between the knockouts mostly do not.
Test system: SKBR3
Assay: relative cell number vs DMSO control (72 h) (% of DMSO); higher = less growth inhibition (more cells)
Description: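 QMAP-Seq: a pool of 5 breast cancer cell lines (ZR-75-1, SKBR3, HCC-38, MDA-MB-231, BT-20), each carrying 12 doxycycline-inducible Cas9 sgRNA perturbations (11 knockouts plus non-targeting sgNT), was treated with compounds for 72 h at four 10-fold doses (10 nM-10 uM or 1 nM-1 uM range). Barcodes were amplified and sequenced, and cell number was interpolated from 293T spike-in standard curves. The result is expressed as % of the median of DMSO wells. Two biological replicates.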

O=C1CCC(N2C(=O)c3ccccc3C2=O)C(=O)N1 (configuration not stated) [Thalidomide]
Conditions | relative cell number
sgRNA knockout: sgATF3, 10 nM | 102 ± 15
sgRNA knockout: sgATF3, 100 nM | 96.5 ± 2.9
sgRNA knockout: sgATF3, 1000 nM | 105 ± 34
sgRNA knockout: sgATF3, 10000 nM | 101 ± 4
sgRNA knockout: sgATF4, 10 nM | 92.8 ± 7.1
sgRNA knockout: sgATF4, 100 nM | 77.3 ± 1.4
sgRNA knockout: sgATF4, 1000 nM | 80 ± 7.7
sgRNA knockout: sgATF4, 10000 nM | 101 ± 14
sgRNA knockout: sgATF6, 10 nM | 78.6 ± 12
sgRNA knockout: sgATF6, 100 nM | 97.2 ± 7.2
sgRNA knockout: sgATF6, 1000 nM | 91 ± 14
sgRNA knockout: sgATF6, 10000 nM | 105 ± 18
sgRNA knockout: sgATG7, 10 nM | 97.2 ± 5.2
sgRNA knockout: sgATG7, 100 nM | 91.8 ± 16
sgRNA knockout: sgATG7, 1000 nM | 117 ± 44
sgRNA knockout: sgATG7, 10000 nM | 102 ± 24
sgRNA knockout: sgERN1, 10 nM | 117 ± 17
sgRNA knockout: sgERN1, 100 nM | 62.7 ± 8.3
sgRNA knockout: sgERN1, 1000 nM | 114 ± 36
sgRNA knockout: sgERN1, 10000 nM | 111 ± 1.9
sgRNA knockout: sgHSF1, 10 nM | 96.2 ± 2.5
sgRNA knockout: sgHSF1, 100 nM | 73.7 ± 9.7
sgRNA knockout: sgHSF1, 1000 nM | 80.9 ± 7.1
sgRNA knockout: sgHSF1, 10000 nM | 93 ± 3
sgRNA knockout: sgHSF2, 10 nM | 91.9 ± 1.7
sgRNA knockout: sgHSF2, 100 nM | 86.1 ± 18
sgRNA knockout: sgHSF2, 1000 nM | 93.8 ± 5.5
sgRNA knockout: sgHSF2, 10000 nM | 95.7 ± 31
sgRNA knockout: sgKEAP1, 10 nM | 98.3 ± 11
sgRNA knockout: sgKEAP1, 100 nM | 72.7 ± 11
sgRNA knockout: sgKEAP1, 1000 nM | 89.6 ± 8.1
sgRNA knockout: sgKEAP1, 10000 nM | 96.2 ± 14
sgRNA knockout: sgNFE2L2, 10 nM | 110 ± 16
sgRNA knockout: sgNFE2L2, 100 nM | 89.4 ± 4.8
sgRNA knockout: sgNFE2L2, 1000 nM | 115 ± 16
sgRNA knockout: sgNFE2L2, 10000 nM | 124 ± 13
sgRNA knockout: sgSLC35F2, 10 nM | 106 ± 3.4
sgRNA knockout: sgSLC35F2, 100 nM | 80.3 ± 5
sgRNA knockout: sgSLC35F2, 1000 nM | 97.1 ± 0.98
sgRNA knockout: sgSLC35F2, 10000 nM | 89.2 ± 6.7
sgRNA knockout: sgXBP1, 10 nM | 120 ± 3.2
sgRNA knockout: sgXBP1, 100 nM | 77.3 ± 9.1
sgRNA knockout: sgXBP1, 1000 nM | 130 ± 4.8
sgRNA knockout: sgXBP1, 10000 nM | 128 ± 22

CN(C)c1cc(NC(=O)CNC(C)(C)C)c(O)c2c1C[C@H]1C[C@H]3[C@H](N(C)C)C(O)=C(C(N)=O)C(=O)[C@@]3(O)C(O)=C1C2=O [Tigecycline]
Conditions | relative cell number
sgRNA knockout: sgATF3, 10 nM | 120 ± 5.6
sgRNA knockout: sgATF3, 100 nM | 104 ± 19
sgRNA knockout: sgATF3, 1000 nM | 114 ± 20
sgRNA knockout: sgATF3, 10000 nM | 109 ± 6.1
sgRNA knockout: sgATF4, 10 nM | 103 ± 20
sgRNA knockout: sgATF4, 100 nM | 93.5 ± 23
sgRNA knockout: sgATF4, 1000 nM | 99.5 ± 5.1
sgRNA knockout: sgATF4, 10000 nM | 107 ± 15
sgRNA knockout: sgATF6, 10 nM | 89.8 ± 12
sgRNA knockout: sgATF6, 100 nM | 110 ± 43
sgRNA knockout: sgATF6, 1000 nM | 89.8 ± 5.9
sgRNA knockout: sgATF6, 10000 nM | 107 ± 22
sgRNA knockout: sgATG7, 10 nM | 99.6 ± 21
sgRNA knockout: sgATG7, 100 nM | 90.1 ± 23
sgRNA knockout: sgATG7, 1000 nM | 124.4 ± 0.86
sgRNA knockout: sgATG7, 10000 nM | 126 ± 9.8
sgRNA knockout: sgERN1, 10 nM | 105 ± 8.7
sgRNA knockout: sgERN1, 100 nM | 93.2 ± 9.7
sgRNA knockout: sgERN1, 1000 nM | 136 ± 17
sgRNA knockout: sgERN1, 10000 nM | 98.6 ± 29
sgRNA knockout: sgHSF1, 10 nM | 83.2 ± 11
sgRNA knockout: sgHSF1, 100 nM | 90.4 ± 32
sgRNA knockout: sgHSF1, 1000 nM | 93.6 ± 14
sgRNA knockout: sgHSF1, 10000 nM | 74.4 ± 4.2
sgRNA knockout: sgHSF2, 10 nM | 98.2 ± 3
sgRNA knockout: sgHSF2, 100 nM | 100 ± 21
sgRNA knockout: sgHSF2, 1000 nM | 95.2 ± 10
sgRNA knockout: sgHSF2, 10000 nM | 101 ± 22
sgRNA knockout: sgKEAP1, 10 nM | 97.6 ± 23
sgRNA knockout: sgKEAP1, 100 nM | 75.6 ± 23
sgRNA knockout: sgKEAP1, 1000 nM | 99.8 ± 14
sgRNA knockout: sgKEAP1, 10000 nM | 82.7 ± 5.8
sgRNA knockout: sgNFE2L2, 10 nM | 92.1 ± 28
sgRNA knockout: sgNFE2L2, 100 nM | 94.8 ± 38
sgRNA knockout: sgNFE2L2, 1000 nM | 89.7 ± 13
sgRNA knockout: sgNFE2L2, 10000 nM | 105 ± 6.7
sgRNA knockout: sgSLC35F2, 10 nM | 96.6 ± 2.1
sgRNA knockout: sgSLC35F2, 100 nM | 105 ± 46
sgRNA knockout: sgSLC35F2, 1000 nM | 92.5 ± 10
sgRNA knockout: sgSLC35F2, 10000 nM | 104 ± 18
sgRNA knockout: sgXBP1, 10 nM | 107 ± 16
sgRNA knockout: sgXBP1, 100 nM | 76.7 ± 12
sgRNA knockout: sgXBP1, 1000 nM | 121 ± 2.4
sgRNA knockout: sgXBP1, 10000 nM | 89.2 ± 34

CC[C@@]1(O)C(=O)OCc2c1cc1n(c2=O)Cc2cc3c(CN(C)C)c(O)ccc3nc2-1 [Topotecan]
Conditions | relative cell number
sgRNA knockout: sgATF3, 10 nM | 78.2 ± 4.1
sgRNA knockout: sgATF3, 100 nM | 19.6 ± 11
sgRNA knockout: sgATF3, 1000 nM | 17 ± 1.7
sgRNA knockout: sgATF3, 10000 nM | 9.65 ± 1.7
sgRNA knockout: sgATF4, 10 nM | 68.9 ± 17
sgRNA knockout: sgATF4, 100 nM | 36.5 ± 4.8
sgRNA knockout: sgATF4, 1000 nM | 16.8 ± 7.8
sgRNA knockout: sgATF4, 10000 nM | 7.13 ± 3
sgRNA knockout: sgATF6, 10 nM | 63.3 ± 11
sgRNA knockout: sgATF6, 100 nM | 30 ± 0.55
sgRNA knockout: sgATF6, 1000 nM | 14 ± 1.6
sgRNA knockout: sgATF6, 10000 nM | 8.34 ± 0.19
sgRNA knockout: sgATG7, 10 nM | 56.2 ± 3
sgRNA knockout: sgATG7, 100 nM | 34.4 ± 1.9
sgRNA knockout: sgATG7, 1000 nM | 12.7 ± 2.8
sgRNA knockout: sgATG7, 10000 nM | 6.94 ± 0.29
sgRNA knockout: sgERN1, 10 nM | 57.3 ± 8.9
sgRNA knockout: sgERN1, 100 nM | 39.8 ± 1.3
sgRNA knockout: sgERN1, 1000 nM | 20.3 ± 12
sgRNA knockout: sgERN1, 10000 nM | 7.15 ± 1.1
sgRNA knockout: sgHSF1, 10 nM | 72.1 ± 26
sgRNA knockout: sgHSF1, 100 nM | 36.7 ± 1.4
sgRNA knockout: sgHSF1, 1000 nM | 15.3 ± 4.5
sgRNA knockout: sgHSF1, 10000 nM | 8.95 ± 0.76
sgRNA knockout: sgHSF2, 10 nM | 77 ± 13
sgRNA knockout: sgHSF2, 100 nM | 45.1 ± 8.1
sgRNA knockout: sgHSF2, 1000 nM | 15.6 ± 0.97
sgRNA knockout: sgHSF2, 10000 nM | 8.27 ± 0.71
sgRNA knockout: sgKEAP1, 10 nM | 63.2 ± 6.7
sgRNA knockout: sgKEAP1, 100 nM | 26 ± 1.1
sgRNA knockout: sgKEAP1, 1000 nM | 14.2 ± 1.1
sgRNA knockout: sgKEAP1, 10000 nM | 8 ± 1.4
sgRNA knockout: sgNFE2L2, 10 nM | 89.5 ± 3.4
sgRNA knockout: sgNFE2L2, 100 nM | 27.9 ± 6.7
sgRNA knockout: sgNFE2L2, 1000 nM | 11.2 ± 1.6
sgRNA knockout: sgNFE2L2, 10000 nM | 8.9 ± 5.7
sgRNA knockout: sgSLC35F2, 10 nM | 66.5 ± 13
sgRNA knockout: sgSLC35F2, 100 nM | 34 ± 4.1
sgRNA knockout: sgSLC35F2, 1000 nM | 12.8 ± 5.6
sgRNA knockout: sgSLC35F2, 10000 nM | 6.44 ± 5.1
sgRNA knockout: sgXBP1, 10 nM | 73.9 ± 17
sgRNA knockout: sgXBP1, 100 nM | 39.49 ± 0.16
sgRNA knockout: sgXBP1, 1000 nM | 16 ± 2.7
sgRNA knockout: sgXBP1, 10000 nM | 10 ± 3.7

Source: the supplement of paper PMC7661543
